# The supplement of paper PMC6411743
# Amino acid sequences for entries named in this document (tags omitted). A change or cut given only in a name is not applied to a line headed by its entry.
# UniProt P48634: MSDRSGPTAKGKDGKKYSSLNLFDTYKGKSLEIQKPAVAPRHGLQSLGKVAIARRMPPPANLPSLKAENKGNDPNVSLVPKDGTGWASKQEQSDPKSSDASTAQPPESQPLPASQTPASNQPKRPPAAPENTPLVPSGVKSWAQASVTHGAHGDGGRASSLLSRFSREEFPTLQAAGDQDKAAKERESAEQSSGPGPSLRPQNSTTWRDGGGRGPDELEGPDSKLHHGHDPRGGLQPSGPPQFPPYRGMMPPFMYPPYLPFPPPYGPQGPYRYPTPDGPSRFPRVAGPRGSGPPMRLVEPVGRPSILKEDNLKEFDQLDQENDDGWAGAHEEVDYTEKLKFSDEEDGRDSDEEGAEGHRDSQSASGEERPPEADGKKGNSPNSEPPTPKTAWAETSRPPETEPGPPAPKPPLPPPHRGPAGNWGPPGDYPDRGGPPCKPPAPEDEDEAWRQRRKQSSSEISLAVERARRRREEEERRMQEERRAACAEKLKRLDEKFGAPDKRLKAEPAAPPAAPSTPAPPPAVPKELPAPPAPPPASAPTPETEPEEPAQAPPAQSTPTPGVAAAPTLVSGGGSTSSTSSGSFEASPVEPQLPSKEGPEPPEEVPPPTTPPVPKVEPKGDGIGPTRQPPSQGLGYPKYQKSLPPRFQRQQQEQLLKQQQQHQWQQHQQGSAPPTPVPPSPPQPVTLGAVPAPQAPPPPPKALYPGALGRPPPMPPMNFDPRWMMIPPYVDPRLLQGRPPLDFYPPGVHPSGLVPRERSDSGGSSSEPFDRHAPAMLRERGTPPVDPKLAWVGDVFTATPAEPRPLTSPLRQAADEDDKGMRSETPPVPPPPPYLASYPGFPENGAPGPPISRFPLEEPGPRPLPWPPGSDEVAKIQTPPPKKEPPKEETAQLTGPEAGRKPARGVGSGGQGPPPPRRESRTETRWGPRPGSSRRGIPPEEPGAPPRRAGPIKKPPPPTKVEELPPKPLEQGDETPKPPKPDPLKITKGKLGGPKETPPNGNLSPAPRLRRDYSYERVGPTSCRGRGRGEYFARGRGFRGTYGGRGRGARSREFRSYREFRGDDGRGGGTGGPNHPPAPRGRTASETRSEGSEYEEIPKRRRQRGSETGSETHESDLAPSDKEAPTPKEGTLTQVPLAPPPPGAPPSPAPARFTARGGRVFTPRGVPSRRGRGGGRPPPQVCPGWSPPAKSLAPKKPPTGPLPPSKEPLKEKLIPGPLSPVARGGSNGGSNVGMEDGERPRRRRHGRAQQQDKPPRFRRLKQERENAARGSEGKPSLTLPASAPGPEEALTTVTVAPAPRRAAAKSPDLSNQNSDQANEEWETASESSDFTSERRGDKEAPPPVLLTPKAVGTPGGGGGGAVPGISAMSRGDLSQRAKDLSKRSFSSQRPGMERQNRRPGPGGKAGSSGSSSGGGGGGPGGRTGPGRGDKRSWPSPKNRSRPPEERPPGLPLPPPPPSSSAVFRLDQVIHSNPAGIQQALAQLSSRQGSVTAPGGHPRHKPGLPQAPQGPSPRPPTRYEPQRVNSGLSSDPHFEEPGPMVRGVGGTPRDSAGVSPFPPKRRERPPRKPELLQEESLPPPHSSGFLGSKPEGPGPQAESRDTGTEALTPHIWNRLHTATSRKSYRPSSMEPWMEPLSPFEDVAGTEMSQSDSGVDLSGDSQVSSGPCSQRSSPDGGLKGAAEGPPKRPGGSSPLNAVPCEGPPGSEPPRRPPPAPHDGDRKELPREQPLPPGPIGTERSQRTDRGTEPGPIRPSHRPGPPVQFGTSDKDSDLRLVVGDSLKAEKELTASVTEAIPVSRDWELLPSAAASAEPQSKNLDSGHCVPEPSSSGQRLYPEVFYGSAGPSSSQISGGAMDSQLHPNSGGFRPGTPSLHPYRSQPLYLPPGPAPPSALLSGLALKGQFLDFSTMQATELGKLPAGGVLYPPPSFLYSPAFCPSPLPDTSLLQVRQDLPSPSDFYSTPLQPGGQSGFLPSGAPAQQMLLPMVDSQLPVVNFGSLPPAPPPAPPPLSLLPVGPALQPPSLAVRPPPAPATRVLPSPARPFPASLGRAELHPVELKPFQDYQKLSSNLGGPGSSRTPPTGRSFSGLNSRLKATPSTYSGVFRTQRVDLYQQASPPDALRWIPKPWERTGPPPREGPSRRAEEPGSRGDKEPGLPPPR
# UniProt P50238: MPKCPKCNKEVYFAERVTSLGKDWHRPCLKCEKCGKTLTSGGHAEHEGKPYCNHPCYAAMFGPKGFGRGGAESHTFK
# UniProt P41229: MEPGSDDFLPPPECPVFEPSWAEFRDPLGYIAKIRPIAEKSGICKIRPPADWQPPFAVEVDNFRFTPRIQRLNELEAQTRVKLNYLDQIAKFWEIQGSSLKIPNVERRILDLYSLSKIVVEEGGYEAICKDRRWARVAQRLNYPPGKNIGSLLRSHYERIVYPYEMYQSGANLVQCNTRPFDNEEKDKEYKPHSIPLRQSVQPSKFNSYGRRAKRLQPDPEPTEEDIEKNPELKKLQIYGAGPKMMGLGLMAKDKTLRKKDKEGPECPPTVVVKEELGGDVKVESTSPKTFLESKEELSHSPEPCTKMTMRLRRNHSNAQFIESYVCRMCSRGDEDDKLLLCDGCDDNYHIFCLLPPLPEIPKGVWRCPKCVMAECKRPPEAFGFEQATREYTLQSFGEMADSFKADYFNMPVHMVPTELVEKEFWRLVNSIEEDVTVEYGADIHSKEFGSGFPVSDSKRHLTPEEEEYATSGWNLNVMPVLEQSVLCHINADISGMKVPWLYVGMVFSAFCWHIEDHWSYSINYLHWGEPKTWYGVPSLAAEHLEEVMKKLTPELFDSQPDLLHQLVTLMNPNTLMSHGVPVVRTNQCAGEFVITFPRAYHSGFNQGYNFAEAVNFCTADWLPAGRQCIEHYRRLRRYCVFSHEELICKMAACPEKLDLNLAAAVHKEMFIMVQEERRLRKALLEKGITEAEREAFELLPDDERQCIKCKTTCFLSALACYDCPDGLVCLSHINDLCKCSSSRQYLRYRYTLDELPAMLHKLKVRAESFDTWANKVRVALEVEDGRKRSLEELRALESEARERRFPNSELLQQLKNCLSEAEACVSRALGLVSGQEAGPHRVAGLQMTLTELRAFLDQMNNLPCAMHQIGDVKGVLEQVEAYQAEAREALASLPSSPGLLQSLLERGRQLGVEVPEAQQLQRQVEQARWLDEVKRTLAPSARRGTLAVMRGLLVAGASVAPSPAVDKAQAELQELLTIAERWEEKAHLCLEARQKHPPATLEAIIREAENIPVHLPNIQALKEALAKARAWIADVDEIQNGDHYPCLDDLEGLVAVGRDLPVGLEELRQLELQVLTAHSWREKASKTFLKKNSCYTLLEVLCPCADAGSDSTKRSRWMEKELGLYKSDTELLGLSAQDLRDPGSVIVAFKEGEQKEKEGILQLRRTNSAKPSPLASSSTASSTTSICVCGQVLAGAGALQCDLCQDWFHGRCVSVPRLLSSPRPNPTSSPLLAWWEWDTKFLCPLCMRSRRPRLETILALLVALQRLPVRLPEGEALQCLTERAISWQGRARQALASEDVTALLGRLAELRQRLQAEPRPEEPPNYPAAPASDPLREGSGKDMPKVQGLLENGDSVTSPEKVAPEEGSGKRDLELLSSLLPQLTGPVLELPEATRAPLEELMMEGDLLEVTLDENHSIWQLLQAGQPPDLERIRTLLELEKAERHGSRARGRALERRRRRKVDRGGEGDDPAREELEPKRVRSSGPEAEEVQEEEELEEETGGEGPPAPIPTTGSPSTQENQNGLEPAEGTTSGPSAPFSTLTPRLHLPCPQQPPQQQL
# UniProt P43378: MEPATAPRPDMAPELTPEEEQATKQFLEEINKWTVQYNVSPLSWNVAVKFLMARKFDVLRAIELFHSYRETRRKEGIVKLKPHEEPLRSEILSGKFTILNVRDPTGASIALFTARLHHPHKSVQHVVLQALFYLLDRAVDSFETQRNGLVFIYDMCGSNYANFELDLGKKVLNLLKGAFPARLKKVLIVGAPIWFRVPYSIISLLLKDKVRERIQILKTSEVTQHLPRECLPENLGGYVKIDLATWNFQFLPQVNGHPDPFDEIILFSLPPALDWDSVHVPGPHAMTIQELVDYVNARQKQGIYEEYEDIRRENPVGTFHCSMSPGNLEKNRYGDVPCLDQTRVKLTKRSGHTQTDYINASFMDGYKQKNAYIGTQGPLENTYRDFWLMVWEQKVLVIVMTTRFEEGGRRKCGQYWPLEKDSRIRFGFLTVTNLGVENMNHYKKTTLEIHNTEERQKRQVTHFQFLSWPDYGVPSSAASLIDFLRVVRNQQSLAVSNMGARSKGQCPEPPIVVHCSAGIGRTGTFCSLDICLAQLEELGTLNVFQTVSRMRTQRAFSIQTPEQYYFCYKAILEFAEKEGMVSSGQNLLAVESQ
# UniProt P51798: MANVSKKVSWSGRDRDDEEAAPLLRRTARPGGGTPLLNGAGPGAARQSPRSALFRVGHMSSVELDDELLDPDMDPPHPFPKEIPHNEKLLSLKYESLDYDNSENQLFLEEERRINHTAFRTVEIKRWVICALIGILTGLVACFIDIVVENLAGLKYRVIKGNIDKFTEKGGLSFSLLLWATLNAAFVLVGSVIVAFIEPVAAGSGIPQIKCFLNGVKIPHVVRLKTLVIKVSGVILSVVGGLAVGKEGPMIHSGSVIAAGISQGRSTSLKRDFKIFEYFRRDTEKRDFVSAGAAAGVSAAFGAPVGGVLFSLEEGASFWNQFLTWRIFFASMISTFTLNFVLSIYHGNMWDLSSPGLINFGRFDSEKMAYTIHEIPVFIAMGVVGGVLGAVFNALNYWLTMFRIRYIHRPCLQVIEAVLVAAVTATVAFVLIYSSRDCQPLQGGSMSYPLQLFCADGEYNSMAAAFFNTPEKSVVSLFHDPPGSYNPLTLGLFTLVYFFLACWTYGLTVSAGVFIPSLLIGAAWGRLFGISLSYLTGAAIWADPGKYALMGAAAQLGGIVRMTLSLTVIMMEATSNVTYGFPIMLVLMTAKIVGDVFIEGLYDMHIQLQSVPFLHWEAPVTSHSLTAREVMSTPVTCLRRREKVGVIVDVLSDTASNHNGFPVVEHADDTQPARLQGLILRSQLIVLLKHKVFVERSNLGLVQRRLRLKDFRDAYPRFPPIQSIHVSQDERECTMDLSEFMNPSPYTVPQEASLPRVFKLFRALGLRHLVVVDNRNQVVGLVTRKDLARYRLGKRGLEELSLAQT
# UniProt P40937, whole entry: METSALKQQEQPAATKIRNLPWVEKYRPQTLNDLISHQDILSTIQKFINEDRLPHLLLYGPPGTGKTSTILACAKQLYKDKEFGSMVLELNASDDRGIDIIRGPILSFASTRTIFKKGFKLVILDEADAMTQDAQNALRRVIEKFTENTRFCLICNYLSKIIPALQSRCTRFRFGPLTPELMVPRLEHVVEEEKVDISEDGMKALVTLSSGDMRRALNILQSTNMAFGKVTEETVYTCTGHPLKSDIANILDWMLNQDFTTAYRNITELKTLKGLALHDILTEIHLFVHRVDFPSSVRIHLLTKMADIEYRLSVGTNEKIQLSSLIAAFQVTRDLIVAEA
# UniProt P40939: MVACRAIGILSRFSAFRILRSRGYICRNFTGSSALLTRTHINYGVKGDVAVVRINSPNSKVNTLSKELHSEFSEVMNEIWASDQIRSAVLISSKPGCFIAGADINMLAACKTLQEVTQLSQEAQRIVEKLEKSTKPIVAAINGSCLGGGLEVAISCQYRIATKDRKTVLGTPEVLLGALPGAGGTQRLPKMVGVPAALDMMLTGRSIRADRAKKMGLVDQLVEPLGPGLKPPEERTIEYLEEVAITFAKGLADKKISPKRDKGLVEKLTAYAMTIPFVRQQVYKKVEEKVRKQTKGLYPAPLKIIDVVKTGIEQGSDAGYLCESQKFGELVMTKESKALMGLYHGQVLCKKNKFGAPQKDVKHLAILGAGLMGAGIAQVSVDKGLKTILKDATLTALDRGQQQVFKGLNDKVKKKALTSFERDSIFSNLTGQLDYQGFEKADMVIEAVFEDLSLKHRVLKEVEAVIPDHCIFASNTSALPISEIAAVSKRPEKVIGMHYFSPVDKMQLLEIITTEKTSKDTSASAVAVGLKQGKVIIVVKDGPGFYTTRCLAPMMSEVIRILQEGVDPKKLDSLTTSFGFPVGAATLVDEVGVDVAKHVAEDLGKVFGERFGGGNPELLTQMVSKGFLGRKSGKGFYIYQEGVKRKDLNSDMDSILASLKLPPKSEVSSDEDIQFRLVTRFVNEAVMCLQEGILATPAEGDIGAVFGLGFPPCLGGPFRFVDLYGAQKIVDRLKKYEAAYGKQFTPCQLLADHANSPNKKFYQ
# UniProt P40855: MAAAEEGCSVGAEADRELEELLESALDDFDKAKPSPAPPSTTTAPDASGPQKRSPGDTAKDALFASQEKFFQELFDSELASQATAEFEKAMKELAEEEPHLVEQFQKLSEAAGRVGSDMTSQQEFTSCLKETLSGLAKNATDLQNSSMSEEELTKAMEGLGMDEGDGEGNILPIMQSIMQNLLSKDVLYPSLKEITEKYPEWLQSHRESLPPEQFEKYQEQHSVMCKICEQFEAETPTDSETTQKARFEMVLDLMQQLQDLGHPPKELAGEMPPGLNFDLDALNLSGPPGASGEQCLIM
# ± gives the standard deviation of the averaged measurements. Only a part is listed here, and it is no random draw.
# Compound: Nc1ncnc2c1ncn2[C@@H]1O[C@H](COP(=O)(O)OP(=O)(O)OP(=O)(O)O)[C@@H](O)[C@H]1O [adenosine triphosphate]
# Test: NP40-soluble protein abundance relative to vehicle (solubility fold change) (ratio); higher = more soluble protein in presence of ATP
# Outline: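 Data come from three independent experiments in which Dounce-homogenised Jurkat crude lysate was treated at eight concentrations from 0.1 to 10 mM. Treatment ran 10 min at room temperature and then 3 min at 37 °C, after which 0.8% NP40 and benzonase were added for 60 min at 4 °C before ultracentrifugation. The supernatant underwent TMT labelling and LC-MS/MS, and vsn-normalised intensities were expressed as fold change against the detergent-processed vehicle in each replicate.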
Target,NP40-soluble protein abundance (concentration: 1mM),NP40-soluble protein abundance (concentration: 2mM),NP40-soluble protein abundance (concentration: 4mM),NP40-soluble protein abundance (concentration: 6mM),NP40-soluble protein abundance (concentration: 8mM),NP40-soluble protein abundance (concentration: 10mM)
UniProt P48634 and related entries,1.15 ± 0.086,1.23 ± 0.077,1.34 ± 0.074,1.52 ± 0.095,1.53 ± 0.054,1.67 ± 0.059
PIK3CG (UniProt P48736),0.962 ± 0.049,0.948 ± 0.028,1 ± 0.071,0.876 ± 0.069,0.971 ± 0.057,1.01 ± 0.017
UniProt P43250-2,1.2 ± 0.088,1.18 ± 0.048,1.2 ± 0.068,1.19 ± 0.071,1.18 ± 0.054,1.14 ± 0.031
UniProt P46020-2,0.981 ± 0.071,0.93 ± 0.023,0.898 ± 0.036,0.941 ± 0.07,0.95 ± 0.04,0.926 ± 0.025
UniProt P49840,0.943 ± 0.057,0.915 ± 0.044,0.877 ± 0.037,0.9 ± 0.056,0.899 ± 0.078,0.9017 ± 0.0066
CRIP1 (UniProt P50238),0.97 ± 0.13,0.965 ± 0.078,0.92 ± 0.096,0.972 ± 0.082,0.944 ± 0.069,0.877 ± 0.082
UniProt P41229 and related entries,0.999 ± 0.041,1.02 ± 0.063,1 ± 0.011,0.996 ± 0.042,0.988 ± 0.027,1.01 ± 0.046
KPNA2 (UniProt P52292),1.06 ± 0.071,1.08 ± 0.05,1.07 ± 0.061,1.11 ± 0.04,1.08 ± 0.033,1.09 ± 0.029
UniProt P49902 and related entries,1.05 ± 0.11,1.01 ± 0.097,1.04 ± 0.096,0.874 ± 0.18,1.03 ± 0.042,1.04 ± 0.053
PAFAH1B1 (UniProt P43034),0.992 ± 0.055,1.01 ± 0.063,0.975 ± 0.03,0.96 ± 0.069,0.976 ± 0.026,0.983 ± 0.053
PTPN9 (UniProt P43378),1.12 ± 0.086,1.01 ± 0.04,1.01 ± 0.078,1.05 ± 0.024,0.997 ± 0.014,1.02 ± 0.049
HDGF (UniProt P51858),0.93 ± 0.083,0.931 ± 0.027,0.904 ± 0.026,0.979 ± 0.051,0.882 ± 0.011,0.896 ± 0.028
UniProt P47813,0.86926 ± 0.00016,0.951 ± 0.085,0.975 ± 0.086,0.939 ± 0.095,1.03 ± 0.073,1.104 ± 0.011
DUSP3 (UniProt P51452),0.965 ± 0.036,0.992 ± 0.055,1 ± 0.087,0.958 ± 0.051,0.946 ± 0.047,0.94 ± 0.077
P39880-3|Q13948 and related entries (UniProt Q13948+P39880),0.951 ± 0.058,0.953 ± 0.029,0.963 ± 0.03,0.998 ± 0.053,0.951 ± 0.026,0.958 ± 0.017
NAMPT (UniProt P43490),1.03 ± 0.087,0.998 ± 0.072,0.979 ± 0.074,0.95 ± 0.13,0.992 ± 0.049,0.978 ± 0.068
UniProt P49841 and related entries,0.9348 ± 0.0052,0.918 ± 0.031,0.926 ± 0.019,0.912 ± 0.034,0.919 ± 0.035,0.92 ± 0.043
UniProt P52333 and related entries,1.0769 ± 0.00054,1.02 ± 0.04,1 ± 0.039,1.03 ± 0.026,1.03 ± 0.028,1.05 ± 0.042
UniProt P51798 and related entries,1.04 ± 0.029,0.97 ± 0.022,0.999 ± 0.034,1.01 ± 0.029,1 ± 0.028,0.983 ± 0.035
RFC5 (UniProt P40937),1.17 ± 0.031,1.24 ± 0.059,1.24 ± 0.021,1.23 ± 0.058,1.24 ± 0.04,1.3 ± 0.041
PRKX (UniProt P51817),0.958 ± 0.096,1.02 ± 0.013,1.07 ± 0.032,1.08 ± 0.099,0.958 ± 0.026,1.01 ± 0.03
HADHA (UniProt P40939),0.977 ± 0.039,0.938 ± 0.024,0.908 ± 0.023,0.919 ± 0.02,0.936 ± 0.025,0.93 ± 0.042
UniProt P40855 and related entries,0.902 ± 0.16,0.893 ± 0.19,0.903 ± 0.096,0.924 ± 0.19,0.807 ± 0.09,0.81 ± 0.16
PBX2 (UniProt P40425),0.979 ± 0.059,1.01 ± 0.11,0.969 ± 0.071,0.987 ± 0.069,0.945 ± 0.074,0.925 ± 0.078
PCYT1A (UniProt P49585),0.978 ± 0.023,0.97 ± 0.028,0.9701 ± 0.0077,0.974 ± 0.053,0.948 ± 0.025,0.96 ± 0.029
PRCP (UniProt P42785),0.892 ± 0.045,0.933 ± 0.025,0.913 ± 0.037,0.893 ± 0.037,0.871 ± 0.067,0.921 ± 0.035
UniProt P51649 and related entries,0.985 ± 0.024,0.984 ± 0.011,0.959 ± 0.029,0.988 ± 0.027,0.981 ± 0.018,0.963 ± 0.027
HSPA13 (UniProt P48723),1.03 ± 0.032,1.02 ± 0.039,1.07 ± 0.079,1.04 ± 0.052,1.01 ± 0.07,1.01 ± 0.068
CENPF (UniProt P49454),0.996 ± 0.049,1.04 ± 0.043,1.05 ± 0.042,1.09 ± 0.045,1.04 ± 0.024,1.07 ± 0.015
UniProt P42684 and related entries,1.01 ± 0.077,0.984 ± 0.091,0.929 ± 0.12,0.951 ± 0.14,0.87 ± 0.095,0.91 ± 0.17

# 2 entries picked at random from the list so far, as already listed:
Target,NP40-soluble protein abundance (concentration: 1mM),NP40-soluble protein abundance (concentration: 2mM),NP40-soluble protein abundance (concentration: 4mM),NP40-soluble protein abundance (concentration: 6mM),NP40-soluble protein abundance (concentration: 8mM),NP40-soluble protein abundance (concentration: 10mM)
UniProt P46020-2,0.981 ± 0.071,0.93 ± 0.023,0.898 ± 0.036,0.941 ± 0.07,0.95 ± 0.04,0.926 ± 0.025
UniProt P49902 and related entries,1.05 ± 0.11,1.01 ± 0.097,1.04 ± 0.096,0.874 ± 0.18,1.03 ± 0.042,1.04 ± 0.053
